We go through five substances from PMC8716928.

By UniProt entry, the sequences of proteins in these tests, tags left out. Where a name states a change or a piece, a line headed by the entry shows the natural chain unless it says otherwise.
UniProt P24374: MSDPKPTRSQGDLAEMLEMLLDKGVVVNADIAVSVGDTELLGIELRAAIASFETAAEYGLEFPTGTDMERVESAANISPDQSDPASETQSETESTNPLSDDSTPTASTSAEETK
UniProt P24377: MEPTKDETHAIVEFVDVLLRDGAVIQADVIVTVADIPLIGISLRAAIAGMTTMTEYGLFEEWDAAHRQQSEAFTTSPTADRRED

Results are given in words; binding and its absence hold for the method and conditions named. In cells and extracts the contact can be indirect. Binding calls can cover weak binding; strength is not graded here. Where a sequence is shown, tags or fusion partners need not be part of it.

Assay [1] has as its target T1, GvpL with NGFP fused at the N-terminus (Halobacterium salinarum) (UniProt Q9HI27).
T1 sequence: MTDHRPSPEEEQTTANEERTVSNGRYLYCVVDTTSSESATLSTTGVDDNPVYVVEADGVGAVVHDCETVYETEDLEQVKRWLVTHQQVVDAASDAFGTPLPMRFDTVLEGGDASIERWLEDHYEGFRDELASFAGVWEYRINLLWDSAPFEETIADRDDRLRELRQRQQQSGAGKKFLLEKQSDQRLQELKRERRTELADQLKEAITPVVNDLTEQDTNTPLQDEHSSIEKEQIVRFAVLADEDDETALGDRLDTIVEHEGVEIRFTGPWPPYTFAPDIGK
Briefly: split reporter; split-GFP (salt-stable mGFP2, split between aa 157 and 158) in Hfx. volcanii transformants, combination JC/NL; cultures 24 h at 37°C then 24 h at 30°C; relative fluorescence (rf) of cells against untransformed WR340.

The target in assay [2] is T1, GvpL with NGFP fused at the N-terminus (Halobacterium salinarum). Nature of the assay: split reporter; split-GFP (mGFP2) in Hfx. volcanii transformants, combination NL/MC with the entire GvpM; relative fluorescence (rf) of cells against untransformed WR340.

Turning to “GvpJ variant M19E with CGFP fused at the C-terminus (from UniProt P24374)”, in assay [1], the binding entry is on record as “binds”.
Regarding “GvpM variant E13A (split-GFP fusion; parent not named) (from UniProt P24377)”, in assay [2], the binding entry is on record as “binds”.
For the substance “GvpM variant D21A (split-GFP fusion; parent not named) (from UniProt P24377)”, the binding entry in assay [2] was “binds”.
Turning to “GvpM variant R20A (split-GFP fusion; parent not named) (from UniProt P24377)”, in assay [2], the binding entry was “binds”.
As for “GvpM variant G22D (split-GFP fusion; parent not named) (from UniProt P24377)”, the binding result in assay [2] is “binds”.
